Here are results for 1 substance from paper PMC8941131.

Sequences of proteins named here, by UniProt entry; tags and fusion partners are left off.
UniProt P31749: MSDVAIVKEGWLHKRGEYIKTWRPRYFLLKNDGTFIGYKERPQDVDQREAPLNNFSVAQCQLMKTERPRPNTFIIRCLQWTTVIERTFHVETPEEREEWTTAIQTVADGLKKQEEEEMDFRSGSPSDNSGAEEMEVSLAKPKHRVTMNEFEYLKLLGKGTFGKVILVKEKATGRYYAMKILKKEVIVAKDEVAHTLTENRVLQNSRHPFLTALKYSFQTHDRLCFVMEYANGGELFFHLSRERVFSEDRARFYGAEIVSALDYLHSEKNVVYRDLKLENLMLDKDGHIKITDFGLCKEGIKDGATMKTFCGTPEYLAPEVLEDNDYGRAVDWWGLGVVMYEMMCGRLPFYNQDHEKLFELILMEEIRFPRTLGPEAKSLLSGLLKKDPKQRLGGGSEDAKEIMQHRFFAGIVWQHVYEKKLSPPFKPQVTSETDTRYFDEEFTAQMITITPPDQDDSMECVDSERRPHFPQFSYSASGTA

No constants are given. Whether binding was seen depends on the method and setting. In cells and extracts the contact can be indirect. Some entries that bind do so weakly or less than the wild type. Where a sequence is shown, tags or fusion partners need not be part of it.

In this assay the target is T1, Flag-PDK1-R544K (UniProt O15530).
T1 sequence: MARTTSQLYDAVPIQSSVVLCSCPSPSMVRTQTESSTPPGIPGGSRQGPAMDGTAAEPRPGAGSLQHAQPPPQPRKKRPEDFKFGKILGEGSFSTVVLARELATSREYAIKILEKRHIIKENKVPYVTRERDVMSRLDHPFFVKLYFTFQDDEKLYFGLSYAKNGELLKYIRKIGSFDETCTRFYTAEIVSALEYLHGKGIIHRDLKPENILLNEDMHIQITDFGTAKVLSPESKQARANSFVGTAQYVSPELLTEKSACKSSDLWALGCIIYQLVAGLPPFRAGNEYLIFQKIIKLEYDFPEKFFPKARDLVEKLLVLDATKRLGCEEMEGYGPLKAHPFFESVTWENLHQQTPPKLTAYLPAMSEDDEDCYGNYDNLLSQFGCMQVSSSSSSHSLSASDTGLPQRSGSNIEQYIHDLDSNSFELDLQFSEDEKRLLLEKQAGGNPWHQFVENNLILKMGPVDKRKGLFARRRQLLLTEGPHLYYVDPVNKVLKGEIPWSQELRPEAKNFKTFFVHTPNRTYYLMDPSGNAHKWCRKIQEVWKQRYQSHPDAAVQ
Briefly: co-IP; immunoprecipitation (anti-Flag or anti-HA agarose, 2-4 h at 4 °C) from whole cell lysates of co-transfected 293T cells; EBC lysis buffer, four washes with NETN buffer, immunoblot; in some panels with HA-S6K1-R3A or knock-down of 14-3-3γ.

For the substance “HA-AKT1 (from UniProt P31749 1-480) (enzyme)”, the binding entry is “binds”.
